1 molecule from patent US20070141632A1 can be followed below.

By UniProt entry, the sequences of proteins in these tests, tags left out. Residues count along the entry.
UniProt Q05793, residues 22-3707: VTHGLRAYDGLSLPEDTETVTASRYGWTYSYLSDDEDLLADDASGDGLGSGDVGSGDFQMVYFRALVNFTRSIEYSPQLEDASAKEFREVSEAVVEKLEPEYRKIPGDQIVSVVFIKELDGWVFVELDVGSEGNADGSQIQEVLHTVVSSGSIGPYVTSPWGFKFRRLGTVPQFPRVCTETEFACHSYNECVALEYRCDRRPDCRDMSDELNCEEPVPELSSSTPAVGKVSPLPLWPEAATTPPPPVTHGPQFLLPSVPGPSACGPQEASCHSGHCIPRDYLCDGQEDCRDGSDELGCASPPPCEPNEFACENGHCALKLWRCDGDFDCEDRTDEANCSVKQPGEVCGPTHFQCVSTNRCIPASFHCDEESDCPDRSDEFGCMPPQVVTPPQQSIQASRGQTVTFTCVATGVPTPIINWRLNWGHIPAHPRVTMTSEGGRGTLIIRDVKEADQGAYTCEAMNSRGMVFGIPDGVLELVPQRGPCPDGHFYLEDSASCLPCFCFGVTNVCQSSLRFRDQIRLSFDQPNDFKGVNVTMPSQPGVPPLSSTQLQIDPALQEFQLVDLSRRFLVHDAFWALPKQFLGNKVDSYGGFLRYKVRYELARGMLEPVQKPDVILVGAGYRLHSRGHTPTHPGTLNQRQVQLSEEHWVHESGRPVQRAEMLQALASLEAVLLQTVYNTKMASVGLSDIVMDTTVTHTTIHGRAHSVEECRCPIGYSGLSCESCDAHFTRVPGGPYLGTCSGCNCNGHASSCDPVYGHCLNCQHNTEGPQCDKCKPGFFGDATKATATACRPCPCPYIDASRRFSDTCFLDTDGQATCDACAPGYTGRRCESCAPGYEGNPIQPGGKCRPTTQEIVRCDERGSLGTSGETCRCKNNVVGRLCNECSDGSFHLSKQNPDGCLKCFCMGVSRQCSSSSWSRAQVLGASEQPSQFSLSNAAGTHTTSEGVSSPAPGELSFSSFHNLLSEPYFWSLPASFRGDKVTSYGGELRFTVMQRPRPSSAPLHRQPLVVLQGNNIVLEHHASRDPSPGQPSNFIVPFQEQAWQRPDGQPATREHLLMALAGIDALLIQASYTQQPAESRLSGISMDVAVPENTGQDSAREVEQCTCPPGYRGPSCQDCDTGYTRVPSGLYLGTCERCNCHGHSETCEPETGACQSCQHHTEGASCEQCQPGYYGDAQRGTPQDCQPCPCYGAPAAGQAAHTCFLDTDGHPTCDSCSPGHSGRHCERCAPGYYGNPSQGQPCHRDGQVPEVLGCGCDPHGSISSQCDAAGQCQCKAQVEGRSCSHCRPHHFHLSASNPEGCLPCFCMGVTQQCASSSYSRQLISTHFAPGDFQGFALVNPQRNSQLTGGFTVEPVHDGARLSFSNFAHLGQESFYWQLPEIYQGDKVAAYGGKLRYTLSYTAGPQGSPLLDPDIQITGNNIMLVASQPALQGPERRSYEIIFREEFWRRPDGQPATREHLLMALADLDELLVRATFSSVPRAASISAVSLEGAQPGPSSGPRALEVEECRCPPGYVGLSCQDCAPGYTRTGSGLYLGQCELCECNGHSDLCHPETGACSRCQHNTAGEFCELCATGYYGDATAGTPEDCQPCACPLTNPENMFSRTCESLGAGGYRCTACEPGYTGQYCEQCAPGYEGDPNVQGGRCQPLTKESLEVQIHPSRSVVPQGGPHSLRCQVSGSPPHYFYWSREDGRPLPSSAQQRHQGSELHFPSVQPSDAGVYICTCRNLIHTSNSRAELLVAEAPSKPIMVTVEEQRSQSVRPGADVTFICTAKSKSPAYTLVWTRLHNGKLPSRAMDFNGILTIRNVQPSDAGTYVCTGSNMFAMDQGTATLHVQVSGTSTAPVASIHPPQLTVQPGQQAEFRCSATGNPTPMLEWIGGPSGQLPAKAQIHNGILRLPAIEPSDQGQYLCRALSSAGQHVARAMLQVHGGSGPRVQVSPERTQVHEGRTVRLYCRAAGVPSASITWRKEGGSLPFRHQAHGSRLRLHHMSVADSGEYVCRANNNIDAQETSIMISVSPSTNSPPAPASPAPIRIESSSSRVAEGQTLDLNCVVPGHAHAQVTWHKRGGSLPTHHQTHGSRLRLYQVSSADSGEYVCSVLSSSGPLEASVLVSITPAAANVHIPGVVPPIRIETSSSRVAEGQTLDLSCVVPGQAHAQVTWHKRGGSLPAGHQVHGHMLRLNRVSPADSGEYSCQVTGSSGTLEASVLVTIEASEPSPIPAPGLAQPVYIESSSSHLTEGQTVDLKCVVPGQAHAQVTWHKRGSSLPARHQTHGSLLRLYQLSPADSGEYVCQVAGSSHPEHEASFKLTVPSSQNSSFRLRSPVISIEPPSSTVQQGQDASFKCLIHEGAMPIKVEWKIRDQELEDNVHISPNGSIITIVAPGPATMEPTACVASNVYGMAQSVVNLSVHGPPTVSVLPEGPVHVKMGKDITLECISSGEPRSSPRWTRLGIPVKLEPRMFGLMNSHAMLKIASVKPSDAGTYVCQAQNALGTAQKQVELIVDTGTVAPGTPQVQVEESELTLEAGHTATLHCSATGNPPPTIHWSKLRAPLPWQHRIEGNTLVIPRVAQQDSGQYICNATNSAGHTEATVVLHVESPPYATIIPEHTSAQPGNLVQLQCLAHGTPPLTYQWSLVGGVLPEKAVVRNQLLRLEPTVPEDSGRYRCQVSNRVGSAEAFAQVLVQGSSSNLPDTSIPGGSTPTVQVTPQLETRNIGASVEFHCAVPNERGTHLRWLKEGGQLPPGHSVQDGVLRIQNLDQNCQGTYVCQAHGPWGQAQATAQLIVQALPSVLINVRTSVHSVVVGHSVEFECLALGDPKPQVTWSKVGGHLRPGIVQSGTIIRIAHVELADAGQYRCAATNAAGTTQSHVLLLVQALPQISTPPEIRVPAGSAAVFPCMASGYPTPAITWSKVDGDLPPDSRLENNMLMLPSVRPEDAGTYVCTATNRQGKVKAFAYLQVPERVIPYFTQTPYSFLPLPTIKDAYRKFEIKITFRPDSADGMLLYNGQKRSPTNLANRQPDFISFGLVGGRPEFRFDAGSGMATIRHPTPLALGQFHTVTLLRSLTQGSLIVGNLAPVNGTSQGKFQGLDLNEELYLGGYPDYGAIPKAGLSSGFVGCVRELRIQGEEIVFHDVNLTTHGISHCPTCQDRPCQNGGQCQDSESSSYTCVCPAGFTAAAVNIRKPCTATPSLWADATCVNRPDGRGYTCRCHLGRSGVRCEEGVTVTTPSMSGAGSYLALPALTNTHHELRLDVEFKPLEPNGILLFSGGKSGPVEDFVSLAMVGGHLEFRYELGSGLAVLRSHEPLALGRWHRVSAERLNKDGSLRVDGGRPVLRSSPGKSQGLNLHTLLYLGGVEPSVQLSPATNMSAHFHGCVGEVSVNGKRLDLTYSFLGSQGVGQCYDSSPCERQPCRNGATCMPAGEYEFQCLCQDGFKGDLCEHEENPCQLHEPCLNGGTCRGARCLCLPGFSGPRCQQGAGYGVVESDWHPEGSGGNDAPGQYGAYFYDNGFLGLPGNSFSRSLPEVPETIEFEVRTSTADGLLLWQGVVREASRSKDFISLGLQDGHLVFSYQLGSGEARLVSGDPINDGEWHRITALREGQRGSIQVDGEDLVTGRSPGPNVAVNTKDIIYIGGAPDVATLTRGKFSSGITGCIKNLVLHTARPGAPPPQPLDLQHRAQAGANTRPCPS

Results are given in words; binding and its absence hold for the method and conditions named. Some binding calls cover weakened binding; strength is not graded here. Sequences can lack the tags named with a protein.

The target in this assay is perlecan on the surface of LLCAng-3 cells (UniProt Q05793). The experiment in a line: immunocolocalization of Ang-3v5 and perlecan on LLCAng-3 cells and in the ECM.

B1: v5 epitope tagged mouse Ang-3 (Ang-3v5) bound on the surface of transfected cells (LLCAng-3) (ligand, not shown: small tags and cut ends)
chain: AQHRGPEAGGHRQIHQVRRGQCSYTFVVPEPDICQLAPTAAPEALGGSNSLQRDLPASRLHLTDWRAQRAQRAQRVSQLEKILENNTQWLLKLEQSIKVNLRSHLVQAQQDTIQNQTTTMLALGANLMNQTKAQTHKLTAVEAQVLNQTLHMKTQMLENSLSTNKLERQMLMQSRELQRLQGRNRALETRLQALEAQHQAQLNSLQEKREQLHSLLGHQTGTLANLKHNLHALSSNSSSLQQQQQQLTEFVQRLVRIVAQDQHPVSLKTPKPVFQDCAEIKRSGVNTSGVYTIYETNMTKPLKVFCDMETDGGGWTLIQHREDGSVNFQRTWEEYKEGFGNVAREHWLGNEAVHRLTSRTAYLLRVELHDWEGRQTSIQYENFQLGSERQRYSLSVNDSSSSAGRKNSLAPQGTKFSTKDMDNDNCMCKCAQMLSGGWWFDACGLSNLNGIYYSVHQHLHKINGIRWHYFRGPSYSLHGTRMMLRPMGA
For the molecule B1, the binding result is reported as “binds”.
